Measurements reported in PubChem BioAssay AID1259308 (NCATS, 2017)
Aim: 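Candidate targets for better recombinant protein yield in mammalian cells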 (primary screen). System: human HEK293 embryonic kidney cells stably expressing firefly luciferase (HEK-CMV-Luc2-Hygro). Knock-down reagent: single siRNA against human genes, 0.8 pmol siRNA per well. Timing: 72 h. Detection: 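Reporter luminescence and viable-cell signal on separate replicate plates, given as percent of non-targeting control and median/MAD z-scores, plus per-cell luciferase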. Reading the numbers: total luciferase, z-score and total luciferase, % of control: higher = more reporter protein produced. Rule for the call: 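An siRNA counts as active if its total luciferase robust z-score exceeds 3; genes with two or more such siRNAs out of three were retested with fresh siRNAs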. Calls: active = raised luciferase; inactive = no rise.
The deposit covers about 59,000 reagents; shown is a random part of them. Over the whole deposit, about 1,510 (2.6%) were called active. 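Calls use total luciferase alone and ignore viability, so some active siRNAs may act by altering cell number.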 Not all columns of the deposit are shown. No sequences are given here.

gene knocked down | PubChem SID | total luciferase, z-score | total luciferase, % of control | call
H2BC5 | SID160733051 | 2.19 | 126 | inactive
H2BC5 | SID160774812 | -2.77 | 26.9 | inactive
H2BC5 | SID160774813 | -0.724 | 67.5 | inactive
CFAP184 | SID160762549 | 0.101 | 83.9 | inactive
CFAP184 | SID160762550 | 0.236 | 86.6 | inactive
CFAP184 | SID160762552 | -2.66 | 29 | inactive
ZNF362 | SID160758775 | -0.613 | 69.7 | inactive
ZNF362 | SID160758776 | -0.378 | 74.4 | inactive
ZNF362 | SID160758777 | 0.246 | 86.8 | inactive
ESPN | SID160751348 | 0.522 | 92.3 | inactive
ESPN | SID160751350 | -0.492 | 72.1 | inactive
ESPN | SID160751351 | -0.694 | 68.1 | inactive
METTL1 | SID160777174 | 0.629 | 94.4 | inactive
METTL1 | SID160777175 | 0.798 | 97.8 | inactive
METTL1 | SID160777176 | -0.283 | 76.3 | inactive
CRTC1 | SID160724321 | -0.549 | 71 | inactive
CRTC1 | SID160730842 | 0.194 | 85.7 | inactive
CRTC1 | SID160736138 | -0.339 | 75.2 | inactive
H2AC6 | SID160719875 | -0.534 | 71.3 | inactive
H2AC6 | SID160724136 | -1.17 | 58.6 | inactive
H2AC6 | SID160724137 | -1.94 | 43.4 | inactive
HTR1D | SID160775442 | -0.495 | 72 | inactive
HTR1D | SID160775443 | -0.0871 | 80.2 | inactive
HTR1D | SID160775444 | 0.00321 | 82 | inactive
TDP1 | SID160744327 | 1.02 | 102 | inactive
TDP1 | SID160744329 | 0.374 | 89.3 | inactive
TDP1 | SID160744330 | -1.07 | 60.6 | inactive
FLOT2 | SID160766549 | -1.12 | 59.7 | inactive
FLOT2 | SID160766560 | 0.714 | 96.1 | inactive
FLOT2 | SID160766571 | 0.375 | 89.3 | inactive
LACTB | SID160754915 | 0.695 | 95.7 | inactive
LACTB | SID160754916 | -1.04 | 61.3 | inactive
LACTB | SID160754917 | -0.577 | 70.4 | inactive
PLEKHA4 | SID160746529 | -0.248 | 77 | inactive
PLEKHA4 | SID160746530 | -0.426 | 73.4 | inactive
PLEKHA4 | SID160746531 | 0.347 | 88.8 | inactive
NR2F2-AS1 | SID160725716 | -0.457 | 72.8 | inactive
NR2F2-AS1 | SID160769143 | 1.21 | 106 | inactive
NR2F2-AS1 | SID160769146 | -0.849 | 65 | inactive
TFB2M | SID160747582 | -0.166 | 78.6 | inactive
TFB2M | SID160747583 | -0.596 | 70 | inactive
TFB2M | SID160747584 | 1.9 | 120 | inactive
HNRNPA1P60 | SID160755796 | -1.64 | 49.2 | inactive
HNRNPA1P60 | SID160755797 | -2.04 | 41.4 | inactive
HNRNPA1P60 | SID160755798 | 2.66 | 135 | inactive
PPFIBP1 | SID160720160 | -0.747 | 67 | inactive
PPFIBP1 | SID160720161 | -0.393 | 74.1 | inactive
PPFIBP1 | SID160720162 | -0.584 | 70.3 | inactive

Continued (10 carried over from the part before).
gene knocked down | PubChem SID | total luciferase, z-score | total luciferase, % of control | call
NR2F2-AS1 | SID160769146 | -0.849 | 65 | inactive
TFB2M | SID160747582 | -0.166 | 78.6 | inactive
TFB2M | SID160747583 | -0.596 | 70 | inactive
TFB2M | SID160747584 | 1.9 | 120 | inactive
HNRNPA1P60 | SID160755796 | -1.64 | 49.2 | inactive
HNRNPA1P60 | SID160755797 | -2.04 | 41.4 | inactive
HNRNPA1P60 | SID160755798 | 2.66 | 135 | inactive
PPFIBP1 | SID160720160 | -0.747 | 67 | inactive
PPFIBP1 | SID160720161 | -0.393 | 74.1 | inactive
PPFIBP1 | SID160720162 | -0.584 | 70.3 | inactive
SEC61A1 | SID160739315 | -0.0805 | 80.3 | inactive
SEC61A1 | SID160739316 | 3 | 142 | active
SEC61A1 | SID160739317 | -0.79 | 66.2 | inactive
CSF1R | SID160749021 | 0.808 | 98 | inactive
CSF1R | SID160749031 | 0.705 | 95.9 | inactive
CSF1R | SID160749042 | 0.876 | 99.3 | inactive
SYT15 | SID160751415 | 2.2 | 126 | inactive
SYT15 | SID160751416 | -0.24 | 77.1 | inactive
SYT15 | SID160751417 | 0.451 | 90.9 | inactive
PEX14 | SID160714128 | -0.205 | 77.8 | inactive
PEX14 | SID160714129 | 0.917 | 100 | inactive
PEX14 | SID160731408 | 1.28 | 107 | inactive
TMSB4X | SID160718178 | -0.785 | 66.3 | inactive
TMSB4X | SID160718180 | 0.691 | 95.6 | inactive
TMSB4X | SID160718181 | 0.0597 | 83.1 | inactive
ESX1 | SID160750475 | -0.538 | 71.2 | inactive
ESX1 | SID160750476 | 0.967 | 101 | inactive
ESX1 | SID160750477 | 0.214 | 86.1 | inactive
GPR143 | SID160778316 | -0.151 | 78.9 | inactive
GPR143 | SID160778317 | -0.363 | 74.7 | inactive
GPR143 | SID160778318 | -0.0151 | 81.6 | inactive
CYRIB | SID160741025 | 2.34 | 128 | inactive
CYRIB | SID160741026 | 1.63 | 114 | inactive
CYRIB | SID160741027 | -1.45 | 53.1 | inactive
ANXA5 | SID160717845 | 3.26 | 147 | active
ANXA5 | SID160717854 | -1.69 | 48.3 | inactive
ANXA5 | SID160717864 | -0.665 | 68.7 | inactive
